The values that follow come from the supplement of paper PMC12067093, “Discovery and optimisation of a covalent ligand for TRIM25 and its application to targeted protein ubiquitination” (Chemical Science, 2025).

Sequences of proteins named here, by UniProt entry; tags and fusion partners are left off. A change or cut given only in a name is not applied to a line headed by its entry.
UniProt O75818: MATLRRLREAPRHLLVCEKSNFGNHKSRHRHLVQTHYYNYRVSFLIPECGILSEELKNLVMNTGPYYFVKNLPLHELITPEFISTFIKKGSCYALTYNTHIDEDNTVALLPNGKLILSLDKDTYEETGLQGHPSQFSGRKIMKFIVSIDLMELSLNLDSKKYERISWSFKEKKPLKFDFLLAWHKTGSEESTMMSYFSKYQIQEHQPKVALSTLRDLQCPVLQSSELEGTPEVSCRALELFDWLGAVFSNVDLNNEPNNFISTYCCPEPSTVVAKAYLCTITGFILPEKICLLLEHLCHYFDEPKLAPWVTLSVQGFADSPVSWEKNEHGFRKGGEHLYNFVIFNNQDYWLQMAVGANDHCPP
UniProt P23443: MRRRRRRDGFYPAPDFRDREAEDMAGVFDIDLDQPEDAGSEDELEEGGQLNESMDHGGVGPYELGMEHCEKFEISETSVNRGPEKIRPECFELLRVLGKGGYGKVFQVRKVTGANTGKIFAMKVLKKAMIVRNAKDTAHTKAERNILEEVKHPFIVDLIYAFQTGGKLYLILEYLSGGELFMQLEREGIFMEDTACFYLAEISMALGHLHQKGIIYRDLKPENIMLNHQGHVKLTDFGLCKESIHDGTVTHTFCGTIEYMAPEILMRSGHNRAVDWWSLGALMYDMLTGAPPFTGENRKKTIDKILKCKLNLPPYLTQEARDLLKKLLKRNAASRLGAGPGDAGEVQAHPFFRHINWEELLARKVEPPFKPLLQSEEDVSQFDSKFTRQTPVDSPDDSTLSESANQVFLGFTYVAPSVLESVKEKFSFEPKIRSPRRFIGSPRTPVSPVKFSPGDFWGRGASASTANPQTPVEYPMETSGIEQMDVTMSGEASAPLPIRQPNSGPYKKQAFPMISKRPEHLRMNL
UniProt Q14151: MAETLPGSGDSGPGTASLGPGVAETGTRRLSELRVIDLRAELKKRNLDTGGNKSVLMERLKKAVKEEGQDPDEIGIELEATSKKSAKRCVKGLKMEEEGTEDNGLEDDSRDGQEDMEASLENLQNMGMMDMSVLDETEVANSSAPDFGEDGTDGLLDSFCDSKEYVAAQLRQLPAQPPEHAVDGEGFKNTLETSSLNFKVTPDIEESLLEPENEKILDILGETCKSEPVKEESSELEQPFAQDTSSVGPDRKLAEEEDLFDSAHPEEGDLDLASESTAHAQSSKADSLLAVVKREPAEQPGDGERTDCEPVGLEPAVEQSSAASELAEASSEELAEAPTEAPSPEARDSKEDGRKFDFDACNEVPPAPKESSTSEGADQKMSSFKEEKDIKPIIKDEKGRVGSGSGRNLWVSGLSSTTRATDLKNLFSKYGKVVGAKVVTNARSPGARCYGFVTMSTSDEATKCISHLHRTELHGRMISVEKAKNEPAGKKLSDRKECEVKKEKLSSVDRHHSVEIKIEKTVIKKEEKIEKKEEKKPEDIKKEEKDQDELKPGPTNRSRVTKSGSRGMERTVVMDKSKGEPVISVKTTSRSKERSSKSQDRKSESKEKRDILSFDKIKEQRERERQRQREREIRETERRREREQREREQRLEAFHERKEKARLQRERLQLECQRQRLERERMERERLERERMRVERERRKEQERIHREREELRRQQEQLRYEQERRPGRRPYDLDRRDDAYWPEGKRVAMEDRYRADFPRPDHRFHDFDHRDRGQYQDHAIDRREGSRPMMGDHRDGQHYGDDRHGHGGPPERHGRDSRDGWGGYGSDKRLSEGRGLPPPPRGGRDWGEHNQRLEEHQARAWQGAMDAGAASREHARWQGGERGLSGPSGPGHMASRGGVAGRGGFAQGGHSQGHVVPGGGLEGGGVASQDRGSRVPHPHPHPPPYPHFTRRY
UniProt Q9UBE0: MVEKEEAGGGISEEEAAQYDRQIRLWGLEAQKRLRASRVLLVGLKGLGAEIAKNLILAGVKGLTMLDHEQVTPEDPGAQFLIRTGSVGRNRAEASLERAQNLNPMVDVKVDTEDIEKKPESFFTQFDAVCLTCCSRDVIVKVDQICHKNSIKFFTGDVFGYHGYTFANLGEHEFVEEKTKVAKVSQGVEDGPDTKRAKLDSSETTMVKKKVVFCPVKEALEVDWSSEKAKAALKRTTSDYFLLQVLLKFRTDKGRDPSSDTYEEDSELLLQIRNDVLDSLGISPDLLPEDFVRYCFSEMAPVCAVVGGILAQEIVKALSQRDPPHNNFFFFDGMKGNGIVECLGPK
UniProt Q96T51: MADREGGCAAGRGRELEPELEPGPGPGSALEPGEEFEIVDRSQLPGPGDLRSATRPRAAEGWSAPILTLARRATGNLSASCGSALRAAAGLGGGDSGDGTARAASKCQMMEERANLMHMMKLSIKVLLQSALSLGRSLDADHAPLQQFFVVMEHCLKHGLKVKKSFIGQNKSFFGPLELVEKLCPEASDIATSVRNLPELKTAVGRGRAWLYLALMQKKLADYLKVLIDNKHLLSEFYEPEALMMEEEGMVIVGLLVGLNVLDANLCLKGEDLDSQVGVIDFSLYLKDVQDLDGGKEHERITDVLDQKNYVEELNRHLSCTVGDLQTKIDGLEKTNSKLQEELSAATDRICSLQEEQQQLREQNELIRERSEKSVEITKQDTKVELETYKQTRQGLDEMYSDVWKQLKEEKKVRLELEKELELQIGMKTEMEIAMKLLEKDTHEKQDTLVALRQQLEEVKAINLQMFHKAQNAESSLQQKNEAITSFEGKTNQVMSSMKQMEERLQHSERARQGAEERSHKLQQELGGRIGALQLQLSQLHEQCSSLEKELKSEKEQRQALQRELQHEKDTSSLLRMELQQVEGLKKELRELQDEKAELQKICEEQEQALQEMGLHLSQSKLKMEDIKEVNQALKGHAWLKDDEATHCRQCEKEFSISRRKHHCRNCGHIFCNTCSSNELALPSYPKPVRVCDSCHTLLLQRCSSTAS
UniProt Q5VWQ0: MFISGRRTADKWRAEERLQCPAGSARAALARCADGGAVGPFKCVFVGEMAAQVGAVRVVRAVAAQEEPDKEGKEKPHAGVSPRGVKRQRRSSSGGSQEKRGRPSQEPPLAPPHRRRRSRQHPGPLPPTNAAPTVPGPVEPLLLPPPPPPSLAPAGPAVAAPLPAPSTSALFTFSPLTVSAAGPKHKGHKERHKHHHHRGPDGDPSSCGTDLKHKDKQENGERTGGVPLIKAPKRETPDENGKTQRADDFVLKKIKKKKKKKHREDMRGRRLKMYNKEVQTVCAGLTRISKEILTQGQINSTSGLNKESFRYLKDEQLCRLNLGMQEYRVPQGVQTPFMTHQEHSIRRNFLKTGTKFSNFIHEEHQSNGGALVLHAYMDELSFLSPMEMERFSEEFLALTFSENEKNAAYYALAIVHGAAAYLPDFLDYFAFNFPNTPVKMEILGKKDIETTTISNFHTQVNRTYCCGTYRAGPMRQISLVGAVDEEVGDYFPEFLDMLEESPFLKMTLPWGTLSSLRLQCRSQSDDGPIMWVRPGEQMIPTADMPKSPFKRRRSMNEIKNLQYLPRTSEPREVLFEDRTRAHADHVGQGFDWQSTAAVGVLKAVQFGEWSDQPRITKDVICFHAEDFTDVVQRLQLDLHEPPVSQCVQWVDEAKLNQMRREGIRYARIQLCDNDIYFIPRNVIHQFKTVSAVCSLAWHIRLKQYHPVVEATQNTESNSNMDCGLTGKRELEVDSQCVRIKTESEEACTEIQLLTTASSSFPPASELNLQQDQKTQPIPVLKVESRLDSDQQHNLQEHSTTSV
UniProt Q9BY42: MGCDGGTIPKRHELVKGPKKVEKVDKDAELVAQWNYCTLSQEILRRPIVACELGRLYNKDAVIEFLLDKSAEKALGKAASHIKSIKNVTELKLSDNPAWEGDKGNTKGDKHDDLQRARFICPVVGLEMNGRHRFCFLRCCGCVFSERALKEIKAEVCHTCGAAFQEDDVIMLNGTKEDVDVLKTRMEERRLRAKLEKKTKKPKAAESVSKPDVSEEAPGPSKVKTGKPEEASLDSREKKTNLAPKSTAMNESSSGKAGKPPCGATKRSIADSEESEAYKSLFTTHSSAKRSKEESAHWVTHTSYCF
UniProt Q9Y265, whole entry, looked up: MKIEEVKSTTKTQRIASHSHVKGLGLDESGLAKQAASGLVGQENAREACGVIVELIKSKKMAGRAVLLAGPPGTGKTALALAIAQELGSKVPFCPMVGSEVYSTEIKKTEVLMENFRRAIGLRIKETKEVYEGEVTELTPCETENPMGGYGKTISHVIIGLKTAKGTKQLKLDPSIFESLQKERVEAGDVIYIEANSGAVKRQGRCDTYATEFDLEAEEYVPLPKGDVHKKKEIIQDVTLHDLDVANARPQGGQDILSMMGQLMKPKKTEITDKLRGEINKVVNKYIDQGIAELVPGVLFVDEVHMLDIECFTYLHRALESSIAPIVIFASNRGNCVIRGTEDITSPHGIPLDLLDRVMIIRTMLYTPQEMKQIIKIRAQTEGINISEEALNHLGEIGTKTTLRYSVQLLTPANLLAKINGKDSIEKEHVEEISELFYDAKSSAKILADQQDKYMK
UniProt Q9NTJ5: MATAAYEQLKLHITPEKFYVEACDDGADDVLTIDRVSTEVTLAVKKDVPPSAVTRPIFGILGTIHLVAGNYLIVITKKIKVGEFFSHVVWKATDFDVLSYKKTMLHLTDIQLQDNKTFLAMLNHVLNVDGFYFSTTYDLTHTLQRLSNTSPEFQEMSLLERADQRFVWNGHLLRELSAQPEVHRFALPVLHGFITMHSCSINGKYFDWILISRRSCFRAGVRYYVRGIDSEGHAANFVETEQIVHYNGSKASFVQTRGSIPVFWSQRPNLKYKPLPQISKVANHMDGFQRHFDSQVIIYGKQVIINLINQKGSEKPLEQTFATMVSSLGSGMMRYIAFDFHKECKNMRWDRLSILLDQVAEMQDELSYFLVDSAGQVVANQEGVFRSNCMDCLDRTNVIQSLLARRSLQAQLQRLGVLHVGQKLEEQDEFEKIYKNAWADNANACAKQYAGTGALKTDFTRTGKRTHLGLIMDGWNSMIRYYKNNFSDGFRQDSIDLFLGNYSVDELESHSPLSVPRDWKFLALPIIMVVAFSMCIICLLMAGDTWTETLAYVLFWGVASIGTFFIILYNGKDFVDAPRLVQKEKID

Some of the results follow.
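Further: competitive chemoproteomic profiling in live THP-1 cells with an iodoacetamide desthiobiotin (IA-DTB) probe, comparing probe-labelled peptide intensities in compound-treated cells against DMSO-treated controls.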

Compound in this assay: CC1Cc2ccccc2N1C(=O)C1CCCN(C1)C(=O)CCl (mixture of isomers) [TRIM25 ligand 11 (diastereomer mixture)]
Kind of assay: probe-labelled cysteine peptide fold change vs DMSO (competition) (log2 fold change); higher = less target engagement (more negative = stronger competition). The conditions noted are these: 50 µM; THP-1; incubation time: 4 h.
Turning to “RPP40_O75818_219+235_DLQCPVLQSSELEGTPEVSCR (UniProt O75818)”, the “probe-labelled cysteine peptide fold change” value is -0.449. Under “RPS6KB1_P23443_254_ESIHDGTVTHTFCGTIEYMAPEILMR (UniProt P23443)” stands -0.158. On to “SAFB2_Q14151_464_CISHLHR (UniProt Q14151)”, for which the “probe-labelled cysteine peptide fold change” value stood at 0.0681.

Regarding “SACS_Q9NZJ4_3694_QCDVLQLLWTSCPILPEK (UniProt Q9NZJ4)”, the “probe-labelled cysteine peptide fold change” value is -0.0315. “SAE1_Q9UBE0_134_VDTEDIEKKPESFFTQFDAVCLTCCSR (UniProt Q9UBE0)”: the “probe-labelled cysteine peptide fold change” value is -0.0309. The result for “SAFB2_Q14151_672_ERLQLECQR (UniProt Q14151)” reads -0.195. Regarding “RPS27A_P62979_121_ECPSDECGAGVFMASHFDR (UniProt P62979)”, the “probe-labelled cysteine peptide fold change” value is -0.142. Take “RPP40_O75818_235_DLQCPVLQSSELEGTPEVSCR (UniProt O75818)”: the “probe-labelled cysteine peptide fold change” value was 0.729. With “RUFY1_Q96T51_648_DDEATHCR (UniProt Q96T51)”, the “probe-labelled cysteine peptide fold change” value was -0.214. On to “RSBN1_Q5VWQ0_671_IQLCDNDIYFIPR (UniProt Q5VWQ0)”, for which the “probe-labelled cysteine peptide fold change” value turned out to be 0.13.

For “RTFDC1_Q9BY42_3_GCDGGTIPK (UniProt Q9BY42)”, the “probe-labelled cysteine peptide fold change” value was -0.16. In the case of “RUVBL1_Q9Y265_94_VPFCPMVGSEVYSTEIK (UniProt Q9Y265)”, the “probe-labelled cysteine peptide fold change” value is -0.0791. On to “RPS11_P62280_116_NMSVHLSPCFR (UniProt P62280)”, for which the “probe-labelled cysteine peptide fold change” value is -0.328. For “RPS2_P15880_222_LLMMAGIDDCYTSAR (UniProt P15880)”, the “probe-labelled cysteine peptide fold change” value is -0.0925.

Consider “SACM1L_Q9NTJ5_23_FYVEACDDGADDVLTIDR (UniProt Q9NTJ5)”, for which the “probe-labelled cysteine peptide fold change” value is -0.192. With “RPS5_P46782_155_VNQAIWLLCTGAR (UniProt P46782)”, the “probe-labelled cysteine peptide fold change” value came out at 0.118.
